Experimental data reported in the supplement of paper PMC10032668.
± gives the standard deviation of the averaged measurements. The list shows a part of the results. The list holds hits alone, and they repeat only in part.

The chains behind the UniProt entries cited, without tags or fusion partners.
EIF3K, Q9UBQ5, UniProt Q9UBQ5, whole entry: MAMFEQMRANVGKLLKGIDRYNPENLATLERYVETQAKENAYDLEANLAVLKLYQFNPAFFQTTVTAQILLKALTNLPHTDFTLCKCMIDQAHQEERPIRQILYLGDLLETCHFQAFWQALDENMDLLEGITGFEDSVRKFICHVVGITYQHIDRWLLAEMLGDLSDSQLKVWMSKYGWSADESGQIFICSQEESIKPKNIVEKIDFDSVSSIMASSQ
GNB2, P62879, UniProt P62879, whole entry: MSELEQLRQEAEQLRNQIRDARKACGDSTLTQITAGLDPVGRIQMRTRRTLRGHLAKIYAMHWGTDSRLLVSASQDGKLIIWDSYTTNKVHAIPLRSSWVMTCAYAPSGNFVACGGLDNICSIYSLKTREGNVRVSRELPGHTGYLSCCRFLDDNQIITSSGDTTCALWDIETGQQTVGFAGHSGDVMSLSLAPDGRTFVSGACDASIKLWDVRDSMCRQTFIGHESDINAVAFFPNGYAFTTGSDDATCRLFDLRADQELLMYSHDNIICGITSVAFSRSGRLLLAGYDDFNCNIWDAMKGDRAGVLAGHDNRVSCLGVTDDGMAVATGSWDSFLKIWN

How the values were obtained:
Test in all cases: PRISMA enrichment of interactor (LFQ) in peptide spot vs all other peptide spots (log2 fold change); higher = stronger / more specific binding of the interactor to the peptide
[1] = biological target: C19orf53, Q9UNZ5
Description: (§1)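 PRISMA: 15-aa overlapping tiles (offset 8 aa) of 60 microproteins, plus SOS1/GLUT1 control peptides, were spot-synthesized on cellulose membranes in triplicate. Membranes were incubated with benzonase-treated HEK293T lysate, and bound proteins were identified by LC-MS/MS with LFQ. Enrichment is the log2 fold change of each protein in one spot versus all other spots. Only interactors passing the significance cutoff are listed.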

[2] = biological target: CHTOP, Q9Y3Y2
Description: as §1

[3] = substrate: CP, P00450
Description: as §1

[4] = biological target: GAR1, Q9NY12
Description: as §1

[5] = biological target: POLDIP2, Q9Y2S7
Description: as §1

[6] = biological target: ZNF22, P17026
Description: as §1

[7] = biological target: CHMP2A, O43633
Description: as §1

[8] = biological target: MUC19, Q7Z5P9
Description: as §1

[9] = biological target: SCP2, P22307
Description: as §1

[10] = biological target: DDX49, Q9Y6V7
Description: as §1

[11] = biological target: EIF3K, Q9UBQ5
Description: as §1

[12] = biological target: FAM91A1, Q658Y4
Description: as §1

[13] = biological target: PDCD11, Q14690
Description: as §1

[14] = biological target: RANGAP1, P46060
Description: as §1

[15] = biological target: FKBP2, P26885
Description: as §1

[16] = biological target: MRPL27, Q9P0M9
Description: as §1

[17] = biological target: NAF1, Q96HR8
Description: as §1

[18] = biological target: C1QBP, Q07021
Description: as §1

[19] = biological target: GNB2, P62879
Description: as §1

[20] = biological target: RNPS1, Q15287
Description: as §1

[21] = biological target: CCDC77, Q9BR77
Description: as §1

[22] = biological target: CIAO1, O76071
Description: as §1

[23] = biological target: NAP1L1, P55209
Description: as §1

[24] = biological target: RNF219, Q5W0B1
Description: as §1

[25] = biological target: CCDC88A, Q3V6T2
Description: as §1

[26] = biological target: RPS29, P62273
Description: as §1

[27] = biological target: CALD1, Q05682
Description: as §1

[28] = biological target: HIST2H2BE, Q16778
Description: as §1

[29] = biological target: ODF2, Q5BJF6
Description: as §1

[30] = biological target: UQCRQ, O14949
Description: as §1

[31] = biological target: MED15, Q96RN5
Description: as §1

[32] = biological target: RPUSD4, Q96CM3
Description: as §1

## SASCTFGGIWSSGVD [LINC01560]
[1]
  PRISMA enrichment of interactor (log2): 6.84
[2]
  PRISMA enrichment of interactor (log2): 5.43
[3]
  PRISMA enrichment of interactor (log2): 4.11
[4]
  PRISMA enrichment of interactor (log2): 5.34
[5]
  PRISMA enrichment of interactor (log2): 5.41
[6]
  PRISMA enrichment of interactor (log2): 4.97

## PLSEPPSDFLTSSPD [NAV2-AS2_2]
[1]
  PRISMA enrichment of interactor (log2): 6.52
[7]
  PRISMA enrichment of interactor (log2): 4.35
[8]
  PRISMA enrichment of interactor (log2): 7.95
[9]
  PRISMA enrichment of interactor (log2): 5.44

## TPEELFHPLGADSQ [GLUT1_WT_1]
[1]
  PRISMA enrichment of interactor (log2): 6.99
[10]
  PRISMA enrichment of interactor (log2): 5.75
[11]
  PRISMA enrichment of interactor (log2): 4.29
[12]
  PRISMA enrichment of interactor (log2): 4.42
[8]
  PRISMA enrichment of interactor (log2): 8.05
[13]
  PRISMA enrichment of interactor (log2): 7.44
[14]
  PRISMA enrichment of interactor (log2): 4.77
[9]
  PRISMA enrichment of interactor (log2): 5.26

## PRRFSTLLLAEDSPL [IFRD1]
[1]
  PRISMA enrichment of interactor (log2): 6.68
[15]
  PRISMA enrichment of interactor (log2): 4.16
[16]
  PRISMA enrichment of interactor (log2): 8.5
[17]
  PRISMA enrichment of interactor (log2): 4.79

## LPQRRRHRLRHGQEQ [RNF10]
[18]
  PRISMA enrichment of interactor (log2): 6.7
[19]
  PRISMA enrichment of interactor (log2): 5.01
[20]
  PRISMA enrichment of interactor (log2): 5.96

## RAPRRCRAARAAGGS [RAB12]
[18]
  PRISMA enrichment of interactor (log2): 6.08
[21]
  PRISMA enrichment of interactor (log2): 7.53
[22]
  PRISMA enrichment of interactor (log2): 6.6
[23]
  PRISMA enrichment of interactor (log2): 5.19 ± 0.33
[24]
  PRISMA enrichment of interactor (log2): 4.26

## MGPRAGRARGGRDEE [PVT1]
[18]
  PRISMA enrichment of interactor (log2): 6.96
[25]
  PRISMA enrichment of interactor (log2): 5.87
[26]
  PRISMA enrichment of interactor (log2): 5.24

## RREFRKNQKLEDAEA [MIEF-MP]
[18]
  PRISMA enrichment of interactor (log2): 7.99
[27]
  PRISMA enrichment of interactor (log2): 9.52
[28]
  PRISMA enrichment of interactor (log2): 5.55
[29]
  PRISMA enrichment of interactor (log2): 5.72
[30]
  PRISMA enrichment of interactor (log2): 6.45

## PRRAPGGRWRSRRVF [TUG1]
[18]
  PRISMA enrichment of interactor (log2): 6.14
[31]
  PRISMA enrichment of interactor (log2): 4.3
[23]
  PRISMA enrichment of interactor (log2): 5.05 ± 0.5
[32]
  PRISMA enrichment of interactor (log2): 4.75
